Data taken from PubChem BioAssay AID1918926, deposited by NCATS (2023).

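Survival of the EJM myeloma line, measured by a luminescent ATP signal after two days of drug exposure. Each compound ran as a dilution series from about 0.00003 µM up to 92 µM, mostly topping out near 45.8 µM. The number is the fitted AC50 for cell killing; a lower value means a more potent compound. Calls come from NCATS curve classes and activity scores: actives score 40–100, inconclusives score 1–39 for weak, partial, poorly fitted or top-dose-only curves.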

Values are in µM. All entries here are filed as inconclusive. Only part of the assay is shown, chiefly results filed as inconclusive. Potencies fitted to partial, single-point or poorly fitting curves are rough. The first word of each remark tells which way the curve ran; it can be opposite to the aim of the assay. Activity scores are not listed here.

compound,Potency (µM),remark
O=C1Nc2ccc(Cl)cc2C(C#CC2CC2)(C(F)(F)F)O1 (configuration not stated),33.17,"cytotoxic, single point"
N#Cc1ccc(COC[C@H]2O[C@@H](n3c(NCc4ccc(Cl)c(Cl)c4)nc4c(N)ncnc43)[C@@H](O)[C@@H]2O)cc1,6.619,"cytotoxic, partial curve"
COc1cc(N2CCC(N3CCN(C)CC3)CC2)ccc1Nc1ncnc(Nc2ccccc2S(=O)(=O)C(C)C)n1,18.65,"cytotoxic, partial curve, poor fit"
NC(=O)N1c2ccccc2CC(=O)c2ccccc21,0.001,cytotoxic
C[C@]12CC[C@H](O)CC1=CC[C@H]1[C@H]3CCC(=O)[C@@]3(C)CC[C@@H]12,13.21,"cytotoxic, partial curve, poor fit"
O=C(Nc1ccccc1Br)N[C@@H]1CCN(c2ccc(C(F)(F)F)cn2)C1,20.93,"cytotoxic, partial curve"
NCCc1ccc(O)c(O)c1,10.49,"cytotoxic, partial curve, poor fit"
Nc1ccn([C@H]2CC[C@@H](CO)O2)c(=O)n1,0.001,-
Cn1cnc2c(F)c(Nc3ccc(Br)cc3Cl)c(C(=O)NOCCO)cc21,1.321,"cytotoxic, partial curve, poor fit"
CC[C@@H](C)[C@H](NC(=O)[C@H](CC1CCCCC1)NC(=O)c1ccno1)C(=O)N1CCC2(CCc3ccccc32)CC1,8.333,"cytotoxic, partial curve, poor fit"
NC(=O)c1ccc2[nH]ccc2c1,0.0019,"rising, full curve, poor fit"
CCOc1ccc(Cc2cc([C@@H]3O[C@H](CO)[C@@H](O)[C@H](O)[C@@H]3O)ccc2Cl)cc1,26.35,"cytotoxic, single point"
COC(=O)Nc1nc2ccc(S(=O)c3ccccc3)cc2[nH]1 (configuration not stated),18.65,"cytotoxic, partial curve, poor fit"
CCNC(=O)Nc1ccc2ncc(Nc3ccc(C)cc3)nc2n1,29.57,"cytotoxic, single point"
CCN(c1ccccc1)c1cc(NC)[n+](C)c(C)n1,6.619,"rising, partial curve, poor fit"
CCOC(=O)N1CCC(=C2c3ccc(Cl)cc3CCc3cccnc32)CC1,20.93,"cytotoxic, partial curve"
COc1cc(Nc2nc3ccccc3nc2NS(=O)(=O)c2ccc(NC(=O)c3ccc(C)c(OC)c3)cc2)cc(OC)c1,23.48,"cytotoxic, partial curve"
CN1CCN(CCOc2cc(OC3CCOCC3)c3c(Nc4c(Cl)ccc5c4OCO5)ncnc3c2)CC1,37.22,"cytotoxic, single point"
CS(=O)(=O)c1ccc(-c2cnc(N)c(C(=O)Nc3ccccc3)n2)cc1,18.65,"cytotoxic, partial curve, poor fit"
COc1cc(N2CCC(N3CCN(C)CC3)CC2)ccc1Nc1ncc(Cl)c(Nc2ccccc2S(=O)(=O)C(C)C)n1,20.93,"cytotoxic, partial curve, poor fit"
Cc1cnn(C)c1C(=O)Nc1cc(Nc2ccc3c(C=Cc4ccccn4)n[nH]c3c2)ccc1F,26.35,"cytotoxic, single point"
COc1ccc2cc3[n+](cc2c1OC)CCc1cc2c(cc1-3)OCO2,18.65,"cytotoxic, partial curve"
CNC(=O)c1ccc(-c2cnc3ncc(Cc4ccc5ncccc5c4)n3n2)cc1F,20.93,"cytotoxic, partial curve, poor fit"
CCn1c(C(=O)N(C2CC2)C2CC2)cc2c3c(ncn3C)c(Nc3cc(C)n(C)n3)nc21,26.35,"cytotoxic, partial curve, poor fit"
O=c1ccn([C@@H]2O[C@H](CO)[C@H](O)[C@@H]2F)c(=O)[nH]1,26.35,"cytotoxic, single point"
Cc1c(NC(=O)OC[C@@H]2COCCN2)cn2ncnc(Nc3ccc4c(cnn4Cc4cccc(F)c4)c3)c12,0.0074,"cytotoxic, full curve, poor fit"
CN(C)CCOc1cc(-c2cn[nH]c2)ccc1NC(=O)C1COc2ccccc2O1 (configuration not stated),9.35,"cytotoxic, partial curve, poor fit"
Cc1ccc2c(c1)C(=O)[C@]1(O)CCN(c3ccccc3)C1=N2,0.7427,"cytotoxic, full curve, poor fit"
COc1cc(Nc2ncc(F)c(Nc3ccc4c(n3)NC(=O)C(C)(C)O4)n2)cc(OC)c1OC,14.82,"cytotoxic, partial curve"
COc1cc(F)c(F)c(Nc2ccc(I)cc2F)c1NS(=O)(=O)C1(C[C@H](O)CO)CC1,11.77,"cytotoxic, partial curve, poor fit"
O=c1cc(CN2CCOCC2)occ1OCCCCCSc1ccnc2cc(C(F)(F)F)ccc12,16.63,"cytotoxic, partial curve, poor fit"
O=C1Cc2cc(CCN3CCN(c4nsc5ccccc45)CC3)c(Cl)cc2N1,37.22,"cytotoxic, partial curve, poor fit"
CCCCCCCCCCCC1=C(O)C(=O)C=C(O)C1=O,33.17,"cytotoxic, single point"
CC1(C)Cc2c(-c3ccccc3)c(-c3ccc(Cl)cc3)c(CC(=O)O)n2C1,23.48,"cytotoxic, partial curve, poor fit"
CN(C)c1ccc(C2Nc3ccc4ccccc4c3C3=C2C(=O)CC(C)(C)C3)cc1Br (configuration not stated),18.65,"cytotoxic, partial curve, poor fit"
C[C@@H]1CCO[C@H]2Cn3cc(C(=O)NCc4ccc(F)cc4F)c(=O)c(O)c3C(=O)N12,20.93,"cytotoxic, partial curve"
CC(C)(C)Cn1c(N)nc2ccc(-c3[nH]c(C(C)(C)C)nc3-c3ccc(F)cc3)nc21,23.48,"cytotoxic, single point"
NC(=O)c1nnn(Cc2cc(Cl)c(C(=O)c3ccc(Cl)cc3)c(Cl)c2)c1N,37.22,"cytotoxic, single point"

The first 4 entries again:

O=C1Nc2ccc(Cl)cc2C(C#CC2CC2)(C(F)(F)F)O1 (configuration not stated) read Potency 33.17 µM (cytotoxic, single point).
N#Cc1ccc(COC[C@H]2O[C@@H](n3c(NCc4ccc(Cl)c(Cl)c4)nc4c(N)ncnc43)[C@@H](O)[C@@H]2O)cc1 read Potency 6.619 µM (cytotoxic, partial curve).
COc1cc(N2CCC(N3CCN(C)CC3)CC2)ccc1Nc1ncnc(Nc2ccccc2S(=O)(=O)C(C)C)n1 read Potency 18.65 µM (cytotoxic, partial curve, poor fit).
NC(=O)N1c2ccccc2CC(=O)c2ccccc21 read Potency 0.001 µM (cytotoxic).